# Test results reported in PubChem BioAssay AID1671190 (National Center for Advancing Translational Sciences (NCATS), 2021).
# Sequences of proteins named here, by UniProt entry; tags and fusion partners are left off.
# UniProt P18054, whole entry, looked up: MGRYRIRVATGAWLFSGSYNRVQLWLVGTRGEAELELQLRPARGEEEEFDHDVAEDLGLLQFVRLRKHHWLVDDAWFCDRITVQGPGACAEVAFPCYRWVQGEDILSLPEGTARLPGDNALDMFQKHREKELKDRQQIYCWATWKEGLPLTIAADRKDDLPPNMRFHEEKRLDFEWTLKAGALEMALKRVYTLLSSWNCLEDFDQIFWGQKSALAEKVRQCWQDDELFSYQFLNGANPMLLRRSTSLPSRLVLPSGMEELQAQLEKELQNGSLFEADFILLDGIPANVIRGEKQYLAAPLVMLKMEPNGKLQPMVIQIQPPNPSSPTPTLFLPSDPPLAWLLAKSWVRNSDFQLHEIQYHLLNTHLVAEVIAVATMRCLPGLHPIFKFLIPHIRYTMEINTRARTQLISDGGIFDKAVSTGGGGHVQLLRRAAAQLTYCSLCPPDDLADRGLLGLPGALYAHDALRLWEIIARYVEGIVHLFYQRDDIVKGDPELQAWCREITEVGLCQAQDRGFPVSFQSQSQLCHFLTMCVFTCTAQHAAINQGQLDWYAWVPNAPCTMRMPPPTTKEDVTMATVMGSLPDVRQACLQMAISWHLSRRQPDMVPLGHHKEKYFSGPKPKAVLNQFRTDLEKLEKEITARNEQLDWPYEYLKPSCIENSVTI
# Hit rate of the full screen: of about 580,000 compounds, about 6,100 (1.1%) were called active. The inconclusive results got no clear call from the source; some entries with a clear call stand among them for comparison. Calls come from the whole dose curve; as a rule, active = well fitted inhibition curve with a large enough effect; inconclusive = small, poorly fitted or top-dose-only effect, or another doubt; inactive = no such curve, though single readings can be large or run the other way. Potencies beside an inconclusive call are fits to weak or partial responses and may not hold up.
# Target: Polyunsaturated fatty acid lipoxygenase ALOX12 (Homo sapiens) (UniProt P18054)
# Test: Primary qHTS assay for inhibitors of human arachidonate 12S-lipoxygenase (ALOX12): Round 2
# Conditions: purified 12hLO, xylenol orange hydroperoxide absorbance; series mostly up to 108 µM
# In short: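 Hydroperoxide product was detected by ferrous iron/xylenol orange as the 573 to 405 nm absorbance ratio. Arachidonic acid at 40 uM (final) was turned over for 30 min at room temperature by 150 nM human 12hLO, pH 7.0 Hepes buffer, after 15 min compound preincubation.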
# Potency is the fitted concentration of half-maximal effect.
row,SMILES,Potency
1,CC(NC(=O)NOCc1ccccc1)c1ccc(C#N)cc1 (centres undefined),"inconclusive: 0.501 µM [inhibitor, full curve, poor fit]"
2,CC(C)[C@H](NC(=O)c1cccc(S(=O)(=O)N2CCOCC2)c1)C(=O)NCc1ccc(F)cc1,inactive
3,c1ccc(NC2(c3nnnn3-c3ccccc3)CCCCC2)cc1,"inconclusive: 56.2 µM [inhibitor, partial curve, poor fit]"
4,CCn1nc(C(=O)N[C@@H](CCSC)c2nc3ccccc3[nH]2)c2ccccc2c1=O,inactive
5,Nc1nc(-c2ccc(Cl)cc2)cn1N,"inconclusive: 25.1 µM [inhibitor, partial curve, poor fit]"
6,CCc1ccc(NC(=O)c2ccc3c(c2)CCN3S(C)(=O)=O)cc1,"inconclusive: 1.58 µM [inhibitor, full curve, poor fit]"
7,CC(=O)c1cc2c(cc1NS(=O)(=O)c1ccccc1C)OCO2,inactive
8,COc1cccc(-c2cc(CNC(=O)[C@H]3O[C@@H](n4cnc5c(N)ncnc54)[C@H](O)[C@@H]3O)no2)c1,"inconclusive: 28.2 µM [inhibitor, single point]"
9,Cc1cc(C)cc(C(=O)N(C)[C@H](Cc2ccc(-c3ccccc3)cc2)C(=O)N[C@@H](Cc2c[nH]c3ccccc23)C(=O)O)c1,"inconclusive: 39.8 µM [inhibitor, single point]"
10,COc1cc(C2CC(=O)Nc3c2c(C)nn3-c2ccc(C)cc2)cc(OC)c1O (centres undefined),"inconclusive: 79.4 µM [inhibitor, single point]"
11,CC(C)C/C(O)=C/c1nc2cc(Cl)ccc2oc1=O,"inconclusive: 56.2 µM [inhibitor, partial curve, poor fit]"
12,COc1ccccc1CNC(=O)C(=O)NCC(c1cccs1)S(=O)(=O)c1ccc(F)cc1 (centres undefined),inactive
13,CO[C@H]1C[C@@H](O)C12CCN(C(=O)c1oc(COc3ccccc3)cc1C)CC2,inactive
14,O=C(Nc1ccc2nc(N3CCN(C4CCCCC4)CC3)cc(C(=O)O)c2c1)c1ccccc1F,"inconclusive: 4.47 µM [inhibitor, full curve]"
15,O=C(CCn1c(=O)oc2ccccc21)Nc1ccccc1,"inconclusive: 44.7 µM [inhibitor, partial curve, poor fit]"
16,Cc1cc(C)cc(Oc2c(C(F)(F)F)oc3cc(OCc4ccccc4)ccc3c2=O)c1,inactive
17,Cc1cc(C)n(CCCN(C)C(=O)C2CC3(CCNCC3)CN2)n1 (centres undefined),"inconclusive: 7.94 µM [inhibitor, full curve]"
18,CC(C)CC(=O)NC1CCN(c2ccccc2)C1=O (centres undefined),"inconclusive: 89.1 µM [inhibitor, single point]"
19,COC(=O)/C=C1/N/C(=N\c2nc(C)cc(C)n2)N(c2cccc(C)c2)C1=O,"inconclusive: 22.4 µM [inhibitor, full curve, poor fit]"
20,S=C(NCc1ccccc1)Nc1ccccc1Br,"inconclusive: 25.1 µM [inhibitor, partial curve, poor fit]"
21,N#Cc1c(N)[nH]c2ccc(Sc3ccccc3)cc12,"inconclusive: 44.7 µM [inhibitor, partial curve, poor fit]"
22,N#Cc1c(NC(=O)c2ccncc2)sc2c1CCC2,"inconclusive: 50.1 µM [inhibitor, partial curve, poor fit]"

row,SMILES,Potency
1,CCN1CCN(c2ccc(S(=O)(=O)N3CCOCC3)cc2NC(=O)/C=C/c2ccc(OC)c(OC)c2)CC1,"inconclusive: 79.4 µM [inhibitor, single point]"
2,COC(=O)C(O)(c1ccccc1)C(Nc1ccc(OC)cc1)c1ccc(Br)cc1 (centres undefined),inactive
3,CNCC(=O)N1CCC(n2nccc2NC(=O)Nc2ccccc2Cl)CC1,"inconclusive: 35.5 µM [inhibitor, full curve, poor fit]"
4,Cc1ccc(CN(C)C(=O)C2CCCN(C3CCN(Cc4cccnc4)CC3)C2)o1 (centres undefined),inactive
5,CCOc1ccc(/C=C(\C(=O)O)c2ccc(S(=O)(=O)N3CCCCC3)s2)cc1OC,"inconclusive: 44.7 µM [inhibitor, partial curve, poor fit]"
6,CC(=O)NC1(C)CCN(Cc2ccc(-c3ccc(Oc4ccccc4)cc3)cc2)C1 (centres undefined),"inconclusive: 22.4 µM [inhibitor, full curve, poor fit]"
7,N#CCc1ccc(NC(=O)CNc2ccccc2C(N)=O)cc1,"inconclusive: 7.08 µM [inhibitor, full curve, poor fit]"
8,O=C(NCCc1ccc(Cl)cc1)c1ccccn1,active: 31.6 µM
9,C[C@H]1O[C@@H](O[C@H]2CC[C@@]3(C)C(CC[C@]4(C)C3C=C[C@]35OC[C@@]6(CCC(C)(C)C[C@H]63)[C@@H](O)C[C@]54C)[C@]2(C)CO)[C@H](O)[C@@H](O[C@@H]2O[C@H](CO)[C@@H](O)[C@H](O)[C@H]2O)[C@H]1O (some centres undefined),"inconclusive: 112 µM [inhibitor, single point]"
10,O=C(C1CCCN(S(=O)(=O)c2cccs2)C1)N1CCN(c2cccc(Cl)c2)CC1 (centres undefined),"inconclusive: 20 µM [inhibitor, full curve, poor fit]"
11,CCOC(=O)C(=CNc1cc(C)ccc1[N+](=O)[O-])C(=O)OCC,inactive
12,O=C(c1cccs1)C1C(c2ccc(Br)cc2)NC(=S)NC1(O)C(F)(F)F (centres undefined),"inconclusive: 44.7 µM [inhibitor, partial curve, poor fit]"
13,Cc1ccccc1C(=O)OCC1CCC[N+]2(C)CCCCC12 (centres undefined),active: 28.2 µM
14,Cc1cc(C)cc(NC(=O)Cc2ccc(S(=O)(=O)N3CCCC3)s2)c1,inactive
15,COc1ccc(Cl)cc1NC(=O)/C(C#N)=C/c1coc2ccc(Cl)cc2c1=O,inactive
16,CCC(C)c1ccc(NC(=S)NCc2cccs2)cc1 (centres undefined),"inconclusive: 35.5 µM [inhibitor, partial curve, poor fit]"
17,CCCCNC(=O)C1CCN(Cc2ccc(OCc3ccccc3)c(OC)c2)CC1,"inconclusive: 1 µM [inhibitor, full curve, poor fit]"
18,O=C(NC1CC1)C1CCN(C2=NS(=O)(=O)c3ccccc32)CC1,inactive
19,O=C(O)COc1ccc(/C=C2/NC(=O)NC2=O)cc1I,"inconclusive: 126 µM [inhibitor, single point]"
20,C[C@H](CO)N1C[C@H](C)[C@@H](CN(C)C(=O)NC2CCCCC2)OCc2cnnn2CCCC1=O,"inconclusive: 112 µM [inhibitor, single point]"
21,Cc1ccc(C(=O)N2CCC3(CC2)NC(=O)N(c2cccc(F)c2)N3)cc1,active: 2.51 µM
22,CCN(Cc1ccccc1)c1ccc(/C=N/NC(=S)Nc2cc(S(=O)(=O)N(C)C)ccc2C)cc1,"inconclusive: 50.1 µM [inhibitor, partial curve, poor fit]"

row,SMILES,Potency
1,Cc1cc(CNC(=O)[C@@H]2CCC[C@@H](NC(=O)CC(C)C)CN(C)C(=O)C2)no1,inactive
2,CN(C)CCN(C(=O)/C=C/c1cccs1)c1nc2c(F)cc(F)cc2s1,"inconclusive: 89.1 µM [inhibitor, single point]"
3,CC1CC(C(F)(F)C(F)(F)F)n2nc(C(=O)O)cc2N1 (centres undefined),"inconclusive: 35.5 µM [inhibitor, single point]"
4,O=c1[nH]c2ccccc2c2ccccc12,inactive
5,CCNC(=O)/C(C#N)=C/c1c(N2CCN(C)CC2)nc2c(C)cccn2c1=O,"inconclusive: 44.7 µM [inhibitor, partial curve, poor fit]"
6,CCOC(=O)CCOC(=O)c1ccc(COc2ccc3ccccc3c2)o1,"inconclusive: 31.6 µM [inhibitor, full curve, poor fit]"
7,Cc1sc2c(c1C)C(=O)/C(=C\Nc1ccncc1)S(=O)(=O)N2C,"inconclusive: 100 µM [inhibitor, single point]"
8,Cc1ccc2[nH]c(=O)c(CN(Cc3cccnc3)C(=O)c3cccnc3)cc2c1,inactive
9,O=C(NNC(=O)c1ccccc1O)c1ccc(S(=O)(=O)Nc2ccccc2)cc1,"inconclusive: 35.5 µM [inhibitor, partial curve]"
10,COC(=O)Cc1ccc(OCC(=O)NC2CCCC2)cc1,"inconclusive: 50.1 µM [inhibitor, partial curve, poor fit]"
11,C[S+](=O)([O-])N1CCCCC1c1nnc2n1CCNC2 (centres undefined),"inconclusive: 56.2 µM [inhibitor, partial curve, poor fit]"
12,COc1ccc(NC(=O)COC(=O)c2ccc(S(=O)(=O)N3CCCC3)cc2)cc1OC,"inconclusive: 126 µM [inhibitor, single point]"
13,CCOC(=O)C1CCN(Cc2cn[nH]c2-c2ccccc2)CC1,"inconclusive: 1.78 µM [inhibitor, full curve, poor fit]"
14,CCCC1c2nccn2CCCN1C(=O)c1ccoc1C (centres undefined),inactive
15,O=[N+]([O-])c1cccc(/C([O-])=C(/C(=S)Nc2cccc3ccccc23)[n+]2ccccc2)c1,inactive
16,CCOC(=O)Cc1csc(NC(=O)CN(C)S(=O)(=O)c2ccc3c(c2)CCC(=O)N3)n1,"inconclusive: 11.2 µM [inhibitor, full curve]"
17,O=C(CCC(=O)N1CCN(c2cccc(Cl)c2)CC1)N1CCN(c2ccccc2)CC1,"inconclusive: 35.5 µM [inhibitor, single point]"
18,CCCn1c(SCC(=O)Nc2nccs2)nnc1-c1cccnc1,"inconclusive: 35.5 µM [inhibitor, single point]"
19,Cc1ccc(-c2cc(C(=O)Nc3ccccn3)c3ccccc3n2)s1,"inconclusive: 39.8 µM [inhibitor, partial curve, poor fit]"
20,OC(c1cccs1)c1nccc2ccccc12 (centres undefined),"inconclusive: 4.47 µM [inhibitor, partial curve]"

# Molecules from the list above that have an aryl methoxy group, in the order listed:
row,SMILES,Potency
8,COc1cccc(-c2cc(CNC(=O)[C@H]3O[C@@H](n4cnc5c(N)ncnc54)[C@H](O)[C@@H]3O)no2)c1,"inconclusive: 28.2 µM [inhibitor, single point]"
10,COc1cc(C2CC(=O)Nc3c2c(C)nn3-c2ccc(C)cc2)cc(OC)c1O (centres undefined),"inconclusive: 79.4 µM [inhibitor, single point]"
12,COc1ccccc1CNC(=O)C(=O)NCC(c1cccs1)S(=O)(=O)c1ccc(F)cc1 (centres undefined),inactive
1,CCN1CCN(c2ccc(S(=O)(=O)N3CCOCC3)cc2NC(=O)/C=C/c2ccc(OC)c(OC)c2)CC1,"inconclusive: 79.4 µM [inhibitor, single point]"
2,COC(=O)C(O)(c1ccccc1)C(Nc1ccc(OC)cc1)c1ccc(Br)cc1 (centres undefined),inactive
5,CCOc1ccc(/C=C(\C(=O)O)c2ccc(S(=O)(=O)N3CCCCC3)s2)cc1OC,"inconclusive: 44.7 µM [inhibitor, partial curve, poor fit]"
15,COc1ccc(Cl)cc1NC(=O)/C(C#N)=C/c1coc2ccc(Cl)cc2c1=O,inactive
17,CCCCNC(=O)C1CCN(Cc2ccc(OCc3ccccc3)c(OC)c2)CC1,"inconclusive: 1 µM [inhibitor, full curve, poor fit]"
12,COc1ccc(NC(=O)COC(=O)c2ccc(S(=O)(=O)N3CCCC3)cc2)cc1OC,"inconclusive: 126 µM [inhibitor, single point]"

# Part of the list above, tab-delimited:
row	SMILES	Potency
3	CC1CC(C(F)(F)C(F)(F)F)n2nc(C(=O)O)cc2N1 (centres undefined)	inconclusive: 35.5 µM [inhibitor, single point]
8	Cc1ccc2[nH]c(=O)c(CN(Cc3cccnc3)C(=O)c3cccnc3)cc2c1	inactive
